The other results are listed elsewhere or left out. Most values lie at the level of the controls, where differences are scatter.

Consider 24 molecules from the supplement of paper PMC5407854, “Inhibitor of ppGalNAc-T3-mediated O-glycosylation blocks cancer cell invasiveness and lowers FGF23 levels” (eLife, 2017).

For this experiment, the system named is ppGalNAc-T2 sensor. The experiment in a line: T2 sensor activation Q score (MG/GFP ratio z-score vs DMSO controls) (SD units); higher = more sensor activation (inhibition of ppGalNAc-T2 glycosylation). The conditions noted are these: HEK293 sensor cells; 10 µM; 6 h. The procedure:
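Cells were treated with compound at 10 uM for 6 h, then MG/GFP ratio was read by flow cytometry (10,000 cells per well, duplicate wells). Q = (R - R_neg)/SD_neg relative to DMSO vehicle controls; the signal rises when the glycosyltransferase is inhibited.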
As to `Fc1ccccc1CN1CCN(Cc2ccc3c(c2)OCO3)CC1`, the “T2 sensor activation Q score” value was 0.225.

With `CCOc1ccc(CN2CCN(c3ccccc3C)CC2)cc1`, the “T2 sensor activation Q score” value was -0.495.

Take `CCN1CCN(Cc2ccc([N+](=O)[O-])cc2)CC1`: the “T2 sensor activation Q score” value is -0.425.

In the case of `Clc1ccc(N2CCN(Cc3ccc4c(c3)OCO4)CC2)cc1`, the “T2 sensor activation Q score” value is -0.885.

In the case of `COc1cc(CN2CCN(C)CC2)cc(OC)c1`, the “T2 sensor activation Q score” value was determined as 1.49.

For the molecule `OCCN1CCN(Cc2cccc(F)c2)CC1`, the “T2 sensor activation Q score” value was determined as 0.865.

As for `COc1ccc(CNCCc2ccccc2)cc1C`, the “T2 sensor activation Q score” value was 0.72.

As to `COc1ccc(CN2CCN(c3cccc(Cl)c3)CC2)c(OC)c1`, the “T2 sensor activation Q score” value was found to be 1.29.

With `OCCN1CCN(Cc2ccccc2)CC1`, the “T2 sensor activation Q score” value is -0.865.

On to `Fc1cccc(CN2CCN(Cc3ccc4c(c3)OCO4)CC2)c1`, for which the “T2 sensor activation Q score” value was -0.665.

Turning to `COc1ccccc1N1CCN(Cc2ccc(N(C)C)cc2)CC1`, the “T2 sensor activation Q score” value was 0.55.

Take `COc1ccc(OC)c(CN2CCN(C)CC2)c1`: the “T2 sensor activation Q score” value was -0.455.

In the case of `CN1CCN(Cc2ccc(F)cc2)CC1`, the “T2 sensor activation Q score” value was determined as 1.35.

`CC(NC(=O)C(Cl)(Cl)Cl)c1ccccc1` (centres undefined): the “T2 sensor activation Q score” value came to 0.38.

In the case of `CC(C)N1CCN(Cc2ccccc2Cl)CC1`, the “T2 sensor activation Q score” value is -0.105.

For `c1ccc2c(CCNC3C4CC5CC(C4)CC3C5)c[nH]c2c1` (centres undefined), the “T2 sensor activation Q score” value was -0.255.

For `O=[N+]([O-])c1ccccc1CN1CCN(c2ccccc2)CC1`, the “T2 sensor activation Q score” value amounted to 0.06.

For `CN1CCC(N2CCOCC2)CC1`, the “T2 sensor activation Q score” value is -0.155.

In the case of `CN1CCN(Cc2c(F)cccc2F)CC1`, the “T2 sensor activation Q score” value is -0.485.

For `CCOc1ccccc1N1CCN(Cc2ccccc2)CC1`, the “T2 sensor activation Q score” value is -0.29.

Consider `COc1cccc(N2CCN(Cc3cccc(Cl)c3)CC2)c1`, for which the “T2 sensor activation Q score” value is -0.38.

For `COc1cccc(CN2CCN(C)CC2)c1OC`, the “T2 sensor activation Q score” value came to 0.69.

As for `COc1ccc(CN2CCN(c3cccc(C)c3C)CC2)cc1C`, the “T2 sensor activation Q score” value was 0.04.

For `CCOc1ccccc1CN1CCN(C)CC1`, the “T2 sensor activation Q score” value was -0.225.
